In PubChem BioAssay AID819 (Columbia University Molecular Screening Center, 2007):
The campaign covered roughly 94,000 compounds. About 280 (0.3%) were called active. The inconclusive results got no clear call from the source; some entries with a clear call stand among them for comparison.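 How the source made its calls: active means activation above 40%, about the mean plus 3 SD, also judged a hit on visual image review; inconclusive means activation above 40% but not a hit on visual review; inactive means activation not above 40% and no visual hit.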

assay: enhancers of NFkB p65 translocation in HUVEC – imaging, IL-1B stimulus, high-content imaging, primary screen (AID 819); settings: HUVEC IL-1B NFkB p65 nuclear translocation imaging; at 2 µM; hits give high values;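 further: percent activation is computed from the nuclear over cytoplasmic p65 intensity ratio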

Q: With COc1cc2ccccc2c2c1CCCC2=O as the molecule, how does the activation read?
A: inactive: -8.98%

Q: Which activation does the source give for Cc1ccc(-n2ncc3c(N4CCC(C(N)=O)CC4)ncnc32)c(C)c1 here?
A: inconclusive: 46.2%

Q: Which activation does the source give for O=C(COc1ccc(/C=N/NS(=O)(=O)c2ccccc2)cc1)Nc1ccc(F)cc1 here?
A: inactive: -95%

Q: For CC1=[N+]([O-])C(N2CCOCC2)C(O)(c2ccccc2)C1 (stereo unspecified), which activation is on record?
A: inconclusive: 54.5%

Q: Which activation does the source give for C=CCN1C(=O)C(Cc2ccc(Br)cc2)S/C1=N\N=C\c1ccco1 (stereo unspecified) here?
A: inconclusive: 70%

Q: With CCCCC(c1nnnn1CC1CCCO1)N1CCN(c2cc(Cl)ccc2C)CC1 (stereo unspecified) as the molecule, how does the activation read?
A: inactive: -3.09%

Q: For CCOC(=O)C1C(=O)C(C(C)=O)C(=O)CC1CC(C)SCC (stereo unspecified), which activation is on record?
A: inactive: -8.36%

Q: For Cc1ccc(N(C)C(=O)N2CCN(c3ccccn3)CC2)cc1, which activation is on record?
A: active: 66.7%

Q: With Cc1cc(C)nc(N(C#N)CN2C(=O)c3ccccc3C2=O)n1 as the molecule, how does the activation read?
A: inconclusive: 42%

Q: For OC(CNCc1ccco1)Cn1c2ccc(Br)cc2c2cc(Br)ccc21 (stereo unspecified), which activation is on record?
A: inactive: -5.42%

Q: With O=C(O)c1ccc(CSc2ncn[nH]2)cc1 as the molecule, how does the activation read?
A: inactive: 12%

Q: With CCOC(=O)c1ccc(Oc2nc(NC(C)(C)C)nc(N(C)C)n2)cc1 as the molecule, how does the activation read?
A: inactive: 17.5%

Q: For CC(C)N(CCc1ccncc1)C(=O)Nc1ccc(F)cc1, which activation is on record?
A: inactive: 31.7%

Q: For CC(OCC(O)CN(C)CCOc1ccccc1)c1ccc(Cl)cc1 (stereo unspecified), which activation is on record?
A: inconclusive: 86.3%

Q: For O=C(Nc1nc2c(s1)CCCC2)Oc1ccccc1, which activation is on record?
A: inactive: 16.3%

Q: For CN1C(=O)C2(Nc3ccccc3-c3nc4ccccc4n32)c2ccccc21 (stereo unspecified), which activation is on record?
A: inconclusive: 103%

Q: With O=C(NC1C2CC3CC(C2)CC1C3)C1CC1 (stereo unspecified) as the molecule, how does the activation read?
A: inconclusive: 42.6%

Q: For CC(C)CCn1c(CN(C)Cc2ccccc2)nc2c1c(=O)n(C)c(=O)n2C, which activation is on record?
A: inconclusive: 50.5%

Q: With CN(c1ccccc1C(=O)Nc1cccc(Cl)c1Cl)S(C)(=O)=O as the molecule, how does the activation read?
A: inactive: -17.6%

Q: For COc1ccc(C(c2nnnn2C2CCCCC2)N2CCN(c3ccccc3)CC2)cc1 (stereo unspecified), which activation is on record?
A: inactive: 1.05%

Q: For Cn1nccc1C(=O)NC(=S)Nc1sc2c(c1C#N)CCCCC2, which activation is on record?
A: inconclusive: 50.9%

Q: Which activation does the source give for Cc1ccsc1C(=O)Nc1cc(C(C)(C)C)nn1-c1ccccc1 here?
A: inactive: 23.9%

Q: With COc1ccc(NC(=O)c2ccco2)cc1NC(=O)c1cccc(OC(C)C)c1 as the molecule, how does the activation read?
A: inconclusive: 41.1%

Q: For O=C(COc1ccccc1)Nc1ccccc1N1CCN(c2ccccc2)CC1, which activation is on record?
A: active: 41.8%

Q: For O=C(Nc1ccc2nc(-c3ccco3)c(-c3ccco3)nc2c1)NC1CC1, which activation is on record?
A: inactive: 9.52%

Q: Which activation does the source give for N#Cc1nc(Cc2ccccc2)oc1NCCc1ccccc1 here?
A: inconclusive: 45%

Q: For Cn1c(-c2ccccc2)cnc1SCC(=O)N1CCCCC1, which activation is on record?
A: inactive: -3.27%

Q: For CNC(=O)c1csc(-c2ccc(C)cc2)n1, which activation is on record?
A: inactive: 5.97%

Q: With CCOc1ccccc1NC(=O)CCN1CCN(S(=O)(=O)c2ccc(Br)cc2)CC1 as the molecule, how does the activation read?
A: inconclusive: 58.7%

Q: For CCOC(=O)Cc1csc(SCc2nc3ccccc3c(=O)[nH]2)n1, which activation is on record?
A: inconclusive: 51%

Q: For Cc1cccc(-c2nnc(SCC#N)n2-c2cccc(Cl)c2)c1, which activation is on record?
A: inactive: 3.17%

Q: With C=CCn1c(CCNC(=O)c2cccs2)nnc1SCC(=O)Nc1cccc(F)c1 as the molecule, how does the activation read?
A: inactive: 7.44%

Q: For Cc1ccccc1CS(=O)(=O)c1nnc([C@H](Cc2ccccc2)NC(=O)OC(C)(C)C)o1, which activation is on record?
A: inactive: -4.95%

Q: Which activation does the source give for CCOC(=O)c1[nH]c(C)c(C(=O)N2CCc3ccccc32)c1C here?
A: active: 100%

Q: Which activation does the source give for COc1ccc(OC)c2sc(NC(=O)C(C)C)nc12 here?
A: inconclusive: 40.8%

Q: With CCc1nnc(NC(=O)CCC(=O)N2CCCC2)s1 as the molecule, how does the activation read?
A: active: 79.4%

Q: For CCn1c(SCC(=O)c2ccc(O)c(O)c2)nnc1-c1ccccc1OC, which activation is on record?
A: inconclusive: 70.3%

Q: With COC(=O)c1cc(S(=O)(=O)N2CCOCC2)ccc1Sc1ccccc1N as the molecule, how does the activation read?
A: inactive: -11.3%

Q: For Cn1c(=O)c2c(SCC(=O)N3CCCc4ccccc43)nc(CC(C)(C)C)nc2n(C)c1=O, which activation is on record?
A: active: 42.4%

Q: With O=C(Cn1ncc2c1-c1ccccc1OC2)Nc1ccc(Cl)cn1 as the molecule, how does the activation read?
A: inconclusive: 45.4%

Q: With Cc1cc(C)n(C(=O)c2cc3c(s2)CCCC3)n1 as the molecule, how does the activation read?
A: inconclusive: 86.8%

Q: With CCNC(=O)N1CCNC(=O)C1CC(=O)OC (stereo unspecified) as the molecule, how does the activation read?
A: inconclusive: 41.1%

Q: With O=C(OCn1nnc2ccccc2c1=O)c1cn(-c2ccccc2)nc1-c1cccnc1 as the molecule, how does the activation read?
A: active: 97.6%

Q: With O=C(CN1CCN(c2ccccn2)CC1)Nc1ccccc1 as the molecule, how does the activation read?
A: active: 40.5%

Q: With CC(C)(C)c1nc2ccccc2[nH]1 as the molecule, how does the activation read?
A: active: 48%

Q: Which activation does the source give for Cc1ccc2cc(CN(Cc3ccco3)C(=O)c3cccs3)c(=O)[nH]c2c1 here?
A: inconclusive: 45.1%
